The other results are listed elsewhere or left out.

Chains of the proteins cited; added tags and fusions are not shown. Lines headed by an entry give the natural chain unless they say otherwise; changes in a name come on top.
UniProt Q03252: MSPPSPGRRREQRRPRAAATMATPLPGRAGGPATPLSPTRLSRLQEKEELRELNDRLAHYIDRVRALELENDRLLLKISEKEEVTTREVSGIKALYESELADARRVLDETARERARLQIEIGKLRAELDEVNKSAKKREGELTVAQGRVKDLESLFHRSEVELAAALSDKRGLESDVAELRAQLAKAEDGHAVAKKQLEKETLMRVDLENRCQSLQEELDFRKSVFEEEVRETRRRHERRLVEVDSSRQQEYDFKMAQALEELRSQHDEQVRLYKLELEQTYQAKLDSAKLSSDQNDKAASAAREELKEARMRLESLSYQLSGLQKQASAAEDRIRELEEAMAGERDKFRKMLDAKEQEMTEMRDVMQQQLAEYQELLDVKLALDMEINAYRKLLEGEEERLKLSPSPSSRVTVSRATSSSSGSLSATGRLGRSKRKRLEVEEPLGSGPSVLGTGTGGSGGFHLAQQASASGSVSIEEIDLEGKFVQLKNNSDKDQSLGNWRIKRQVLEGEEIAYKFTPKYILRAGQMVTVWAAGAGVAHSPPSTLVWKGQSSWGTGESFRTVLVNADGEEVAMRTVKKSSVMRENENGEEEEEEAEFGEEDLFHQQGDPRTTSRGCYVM
UniProt Q8N1G4: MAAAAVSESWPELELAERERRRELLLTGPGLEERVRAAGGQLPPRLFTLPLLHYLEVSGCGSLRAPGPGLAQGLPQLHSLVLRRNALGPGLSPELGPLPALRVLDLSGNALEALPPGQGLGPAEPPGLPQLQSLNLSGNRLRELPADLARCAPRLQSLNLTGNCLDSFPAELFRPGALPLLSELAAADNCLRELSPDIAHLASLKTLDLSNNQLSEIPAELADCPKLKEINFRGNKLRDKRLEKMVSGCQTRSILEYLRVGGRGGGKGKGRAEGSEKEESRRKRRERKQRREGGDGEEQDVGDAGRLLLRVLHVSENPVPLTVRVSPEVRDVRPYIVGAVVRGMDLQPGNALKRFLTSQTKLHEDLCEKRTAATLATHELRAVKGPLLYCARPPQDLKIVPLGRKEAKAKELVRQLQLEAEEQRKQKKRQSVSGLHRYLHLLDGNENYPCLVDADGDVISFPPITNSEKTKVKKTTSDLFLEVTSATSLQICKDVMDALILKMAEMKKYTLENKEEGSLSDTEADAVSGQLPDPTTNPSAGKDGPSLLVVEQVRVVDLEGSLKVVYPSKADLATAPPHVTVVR
UniProt O60294: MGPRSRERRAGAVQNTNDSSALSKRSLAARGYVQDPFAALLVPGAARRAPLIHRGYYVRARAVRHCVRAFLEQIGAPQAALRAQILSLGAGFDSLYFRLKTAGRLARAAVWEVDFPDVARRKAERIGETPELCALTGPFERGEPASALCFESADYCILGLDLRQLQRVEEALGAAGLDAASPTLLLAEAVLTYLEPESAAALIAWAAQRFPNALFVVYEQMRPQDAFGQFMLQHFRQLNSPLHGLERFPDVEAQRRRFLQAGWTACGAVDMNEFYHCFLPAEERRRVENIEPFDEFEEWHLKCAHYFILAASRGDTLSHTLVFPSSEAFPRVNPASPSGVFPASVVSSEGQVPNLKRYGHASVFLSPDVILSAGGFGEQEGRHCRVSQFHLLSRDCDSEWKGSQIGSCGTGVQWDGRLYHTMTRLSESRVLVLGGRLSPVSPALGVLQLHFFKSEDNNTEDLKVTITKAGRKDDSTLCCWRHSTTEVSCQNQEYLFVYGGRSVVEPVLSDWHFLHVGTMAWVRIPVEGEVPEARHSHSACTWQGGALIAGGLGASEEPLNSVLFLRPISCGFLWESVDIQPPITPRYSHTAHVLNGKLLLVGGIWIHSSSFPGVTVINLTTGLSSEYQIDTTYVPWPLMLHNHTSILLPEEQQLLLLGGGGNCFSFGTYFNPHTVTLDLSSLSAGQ
UniProt Q6P1Q0: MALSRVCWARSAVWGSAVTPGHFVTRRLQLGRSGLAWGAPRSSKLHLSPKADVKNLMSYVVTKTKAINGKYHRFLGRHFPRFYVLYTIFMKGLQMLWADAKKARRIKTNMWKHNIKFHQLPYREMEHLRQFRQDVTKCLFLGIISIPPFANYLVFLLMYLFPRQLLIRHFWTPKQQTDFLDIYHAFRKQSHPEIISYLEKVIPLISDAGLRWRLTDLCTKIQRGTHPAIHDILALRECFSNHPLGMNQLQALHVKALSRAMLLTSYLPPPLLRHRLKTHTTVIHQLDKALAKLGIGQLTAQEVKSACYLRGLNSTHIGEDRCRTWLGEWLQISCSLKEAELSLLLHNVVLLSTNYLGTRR
UniProt Q6YP21: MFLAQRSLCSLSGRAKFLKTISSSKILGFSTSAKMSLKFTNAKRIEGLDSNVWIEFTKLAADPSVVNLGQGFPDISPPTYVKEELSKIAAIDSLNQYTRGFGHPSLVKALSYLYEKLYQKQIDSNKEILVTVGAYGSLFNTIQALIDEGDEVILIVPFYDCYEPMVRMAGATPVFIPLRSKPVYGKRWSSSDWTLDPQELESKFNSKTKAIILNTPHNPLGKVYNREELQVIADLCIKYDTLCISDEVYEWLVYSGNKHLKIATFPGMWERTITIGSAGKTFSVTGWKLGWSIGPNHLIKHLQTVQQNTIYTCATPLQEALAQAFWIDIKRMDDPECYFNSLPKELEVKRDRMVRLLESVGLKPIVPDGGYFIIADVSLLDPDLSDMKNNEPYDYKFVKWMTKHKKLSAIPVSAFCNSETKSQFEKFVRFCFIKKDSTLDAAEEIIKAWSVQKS
UniProt Q9BRT6: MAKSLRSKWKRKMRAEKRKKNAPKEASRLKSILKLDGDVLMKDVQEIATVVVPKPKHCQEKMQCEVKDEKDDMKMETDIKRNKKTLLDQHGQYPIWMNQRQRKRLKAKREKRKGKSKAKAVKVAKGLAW
UniProt Q92539: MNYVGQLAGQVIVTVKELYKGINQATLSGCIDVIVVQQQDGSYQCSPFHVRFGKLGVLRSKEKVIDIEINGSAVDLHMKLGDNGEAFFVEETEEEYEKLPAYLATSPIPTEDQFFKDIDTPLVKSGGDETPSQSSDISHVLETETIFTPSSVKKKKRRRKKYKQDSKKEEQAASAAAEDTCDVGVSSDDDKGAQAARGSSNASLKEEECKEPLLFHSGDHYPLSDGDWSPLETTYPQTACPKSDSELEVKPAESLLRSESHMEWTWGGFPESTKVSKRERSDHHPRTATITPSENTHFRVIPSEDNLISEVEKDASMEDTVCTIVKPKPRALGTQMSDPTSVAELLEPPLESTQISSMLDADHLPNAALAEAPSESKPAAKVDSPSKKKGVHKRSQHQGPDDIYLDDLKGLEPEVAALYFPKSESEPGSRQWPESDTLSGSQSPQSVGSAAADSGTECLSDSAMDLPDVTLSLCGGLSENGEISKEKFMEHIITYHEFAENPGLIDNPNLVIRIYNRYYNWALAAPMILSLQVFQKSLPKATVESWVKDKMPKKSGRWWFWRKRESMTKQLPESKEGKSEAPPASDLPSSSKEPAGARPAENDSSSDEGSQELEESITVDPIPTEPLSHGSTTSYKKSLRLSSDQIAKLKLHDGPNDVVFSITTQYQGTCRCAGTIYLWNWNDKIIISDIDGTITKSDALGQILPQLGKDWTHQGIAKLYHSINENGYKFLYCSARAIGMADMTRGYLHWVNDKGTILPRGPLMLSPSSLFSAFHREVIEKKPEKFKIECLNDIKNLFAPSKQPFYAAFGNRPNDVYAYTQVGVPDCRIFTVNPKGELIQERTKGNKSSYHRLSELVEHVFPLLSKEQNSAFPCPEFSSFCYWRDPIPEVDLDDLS
UniProt Q4G0J3: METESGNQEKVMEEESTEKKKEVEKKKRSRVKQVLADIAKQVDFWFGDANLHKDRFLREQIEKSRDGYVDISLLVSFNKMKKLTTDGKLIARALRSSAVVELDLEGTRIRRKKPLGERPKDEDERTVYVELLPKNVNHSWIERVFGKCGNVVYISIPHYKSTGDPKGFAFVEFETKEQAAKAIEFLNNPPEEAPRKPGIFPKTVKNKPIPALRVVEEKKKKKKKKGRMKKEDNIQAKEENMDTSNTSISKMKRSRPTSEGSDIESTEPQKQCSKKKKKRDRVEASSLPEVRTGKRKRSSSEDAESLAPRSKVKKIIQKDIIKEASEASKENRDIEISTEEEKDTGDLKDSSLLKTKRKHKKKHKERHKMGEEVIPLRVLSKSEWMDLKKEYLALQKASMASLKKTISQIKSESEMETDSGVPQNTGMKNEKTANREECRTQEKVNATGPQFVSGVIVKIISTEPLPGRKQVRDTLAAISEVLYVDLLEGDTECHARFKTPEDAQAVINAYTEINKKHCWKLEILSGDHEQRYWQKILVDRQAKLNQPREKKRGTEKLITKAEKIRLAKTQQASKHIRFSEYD
UniProt Q6P1M3: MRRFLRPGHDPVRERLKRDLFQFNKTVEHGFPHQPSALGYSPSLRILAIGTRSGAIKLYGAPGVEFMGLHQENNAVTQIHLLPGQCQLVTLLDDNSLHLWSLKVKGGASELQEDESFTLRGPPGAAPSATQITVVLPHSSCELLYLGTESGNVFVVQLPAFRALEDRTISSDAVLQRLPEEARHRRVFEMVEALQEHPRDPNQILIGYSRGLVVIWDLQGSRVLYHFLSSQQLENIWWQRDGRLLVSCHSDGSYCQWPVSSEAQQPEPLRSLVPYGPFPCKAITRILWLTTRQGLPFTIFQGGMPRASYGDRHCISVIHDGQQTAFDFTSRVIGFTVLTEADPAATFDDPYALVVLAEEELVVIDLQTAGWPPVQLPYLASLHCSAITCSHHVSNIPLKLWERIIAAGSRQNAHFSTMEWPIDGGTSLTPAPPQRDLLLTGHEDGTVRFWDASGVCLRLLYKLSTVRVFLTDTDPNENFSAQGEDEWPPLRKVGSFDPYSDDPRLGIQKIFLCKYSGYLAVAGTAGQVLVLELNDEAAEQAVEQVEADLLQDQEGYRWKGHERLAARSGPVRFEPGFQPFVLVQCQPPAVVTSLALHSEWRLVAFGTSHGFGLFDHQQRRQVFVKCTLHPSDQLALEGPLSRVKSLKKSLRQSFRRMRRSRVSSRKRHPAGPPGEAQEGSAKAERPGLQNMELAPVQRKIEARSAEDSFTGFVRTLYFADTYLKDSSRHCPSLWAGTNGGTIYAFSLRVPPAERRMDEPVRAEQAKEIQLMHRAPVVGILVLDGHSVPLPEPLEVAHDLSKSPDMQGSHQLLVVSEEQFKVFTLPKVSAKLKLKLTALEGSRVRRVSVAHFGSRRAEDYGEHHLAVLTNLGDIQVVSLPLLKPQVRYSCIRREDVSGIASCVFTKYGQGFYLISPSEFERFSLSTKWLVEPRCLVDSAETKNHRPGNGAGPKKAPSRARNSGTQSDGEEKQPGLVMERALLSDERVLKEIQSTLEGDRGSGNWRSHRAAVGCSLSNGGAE
UniProt Q9P2J5: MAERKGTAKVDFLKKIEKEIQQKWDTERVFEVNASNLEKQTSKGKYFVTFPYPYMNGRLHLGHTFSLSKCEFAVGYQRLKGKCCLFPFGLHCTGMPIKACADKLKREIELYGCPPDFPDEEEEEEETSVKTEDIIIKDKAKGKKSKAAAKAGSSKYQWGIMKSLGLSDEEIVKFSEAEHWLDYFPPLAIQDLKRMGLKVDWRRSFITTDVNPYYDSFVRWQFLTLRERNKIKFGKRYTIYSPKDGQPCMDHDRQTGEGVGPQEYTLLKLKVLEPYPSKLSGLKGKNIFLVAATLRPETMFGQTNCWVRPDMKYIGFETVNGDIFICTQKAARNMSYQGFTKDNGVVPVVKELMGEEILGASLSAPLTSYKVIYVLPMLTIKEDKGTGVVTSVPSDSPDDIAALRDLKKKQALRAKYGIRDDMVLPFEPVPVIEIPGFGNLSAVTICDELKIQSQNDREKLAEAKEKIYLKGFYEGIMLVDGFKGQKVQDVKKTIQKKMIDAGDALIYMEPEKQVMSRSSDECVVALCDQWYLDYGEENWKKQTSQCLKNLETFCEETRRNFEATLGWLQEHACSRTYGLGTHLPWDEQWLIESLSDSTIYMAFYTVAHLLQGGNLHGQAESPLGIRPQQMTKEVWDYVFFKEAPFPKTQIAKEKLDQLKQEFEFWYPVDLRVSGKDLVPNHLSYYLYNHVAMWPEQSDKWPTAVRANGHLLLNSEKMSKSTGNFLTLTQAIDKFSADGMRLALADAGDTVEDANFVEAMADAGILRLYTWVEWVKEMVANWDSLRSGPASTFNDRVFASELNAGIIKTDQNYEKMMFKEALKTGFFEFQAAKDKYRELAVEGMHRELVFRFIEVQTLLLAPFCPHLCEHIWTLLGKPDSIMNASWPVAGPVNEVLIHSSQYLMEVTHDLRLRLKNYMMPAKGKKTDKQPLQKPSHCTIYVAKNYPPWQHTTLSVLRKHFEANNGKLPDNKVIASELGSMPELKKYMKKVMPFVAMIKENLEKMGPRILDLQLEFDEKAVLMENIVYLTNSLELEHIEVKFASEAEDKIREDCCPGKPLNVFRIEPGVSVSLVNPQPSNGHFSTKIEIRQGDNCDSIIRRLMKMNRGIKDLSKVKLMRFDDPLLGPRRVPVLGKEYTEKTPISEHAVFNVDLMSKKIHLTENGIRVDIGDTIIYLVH

Compound in one assay: CC[C@@H]1C(=O)N(C)c2cnc(Nc3ccc(C(=O)NC4CCN(C)CC4)cc3OC)nc2N1C1CCCC1
Kind of assay: log2 fold change, soluble protein after heating vs DMSO (PISA); higher = thermal stabilisation; K562 cells, 10 uM, 30 min; active = over 0.2 and 3.5 SD of the protein, either way, in both replicates (recomputed). In a few lines:
(§1)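 Thermal stability values are relative to control samples and come from duplicates. They are expressed as log2 fold changes. For measurement, K562 cells (2×10^6 cells/mL) received 10 μM compound for 30 min, and aliquots were heated for 3 min over 48°C-58°C, pooled, and extracted at 4°C in PBS with 0.5% NP-40. Soluble protein, the supernatant after 21,000xg for 90 min, was quantified by TMTpro 16plex LC-MS/MS with equalised channel sums.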
In the case of LMNB2 (UniProt Q03252), the log2 fold change was inactive: 0.027.
On the same count and under the same terms, in the case of LRRC47 (UniProt Q8N1G4) it was inactive: 0.
Still for that read-out and setting: with L1RE1 (UniProt Q9UN81) the figure was inactive: 0.147.
With LRPAP1 (UniProt P30533), the log2 fold change was inactive: -0.002.
On the same count and under the same terms, in the case of LRIG2 (UniProt O94898) it was inactive: 0.04; in that of LCMT2 (UniProt O60294), inactive: 0.149; in that of LIN7C (UniProt Q9NUP9), inactive: 0.028.
Same read-out and setting: with LETMD1 isoform 7 (UniProt Q6P1Q0) the figure was inactive: -0.048; with LRRC4B (UniProt Q9NT99), inactive: 0.105.

Compound in the next assay: CC[C@@H]1C(=O)N(C)c2cnc(Nc3ccc(C(=O)N[C@H]4CC[C@H](N5CCN(CC6CC6)CC5)CC4)cc3OC)nc2N1C(C)C [volasertib]
The description is as above. In a few lines: as §1
Turning to KYNU (UniProt Q16719), the log2 fold change is inactive: 0.014.
The same measure, in the same setting: with KTN1 (UniProt Q86UP2) the figure was inactive: -0.242; with LPIN3 isoform 2 (UniProt Q9BQK8), inactive: -0.015; with LDHA isoform 3 (UniProt P00338), inactive: 0.055.
With KYAT3 (UniProt Q6YP21), the log2 fold change is inactive: 0.052.
The same measure, in the same setting: with LASP1 (UniProt Q14847) the figure was inactive: 0.072; with LCLAT1 (UniProt Q6UWP7), inactive: -0.062; with LAMTOR4 (UniProt Q0VGL1), inactive: -0.023.
The same measure, in the same setting: in the case of LLPH (UniProt Q9BRT6) it was inactive: 0.253; in that of LMAN2 (UniProt Q12907), inactive: -0.021; in that of LPIN2 (UniProt Q92539), inactive: -0.105.
Same read-out and setting: with LARP7 isoform 3 (UniProt Q4G0J3) the figure was inactive: -0.155.
On to LLGL2 (UniProt Q6P1M3), for which the log2 fold change is inactive: 0.075.
As for LARS (UniProt Q9P2J5), the log2 fold change is inactive: 0.023.

The values above are taken from the supplement of paper PMC10849652.
